From article PMC6548965
The exact form of at least one protein or probe is not confirmed. Results from cells or extracts need not show a direct contact. For part of these data: Negatives hold for the conditions tested. For part of these data: At least one verdict was read from the data and is not stated in words by the source.

Chains of the proteins cited; added tags and fusions are not shown. Chains listed by the source or under a name are the forms on record and can include a tag or linker. Residues count along the entry.
UniProt P32004, 20-1257: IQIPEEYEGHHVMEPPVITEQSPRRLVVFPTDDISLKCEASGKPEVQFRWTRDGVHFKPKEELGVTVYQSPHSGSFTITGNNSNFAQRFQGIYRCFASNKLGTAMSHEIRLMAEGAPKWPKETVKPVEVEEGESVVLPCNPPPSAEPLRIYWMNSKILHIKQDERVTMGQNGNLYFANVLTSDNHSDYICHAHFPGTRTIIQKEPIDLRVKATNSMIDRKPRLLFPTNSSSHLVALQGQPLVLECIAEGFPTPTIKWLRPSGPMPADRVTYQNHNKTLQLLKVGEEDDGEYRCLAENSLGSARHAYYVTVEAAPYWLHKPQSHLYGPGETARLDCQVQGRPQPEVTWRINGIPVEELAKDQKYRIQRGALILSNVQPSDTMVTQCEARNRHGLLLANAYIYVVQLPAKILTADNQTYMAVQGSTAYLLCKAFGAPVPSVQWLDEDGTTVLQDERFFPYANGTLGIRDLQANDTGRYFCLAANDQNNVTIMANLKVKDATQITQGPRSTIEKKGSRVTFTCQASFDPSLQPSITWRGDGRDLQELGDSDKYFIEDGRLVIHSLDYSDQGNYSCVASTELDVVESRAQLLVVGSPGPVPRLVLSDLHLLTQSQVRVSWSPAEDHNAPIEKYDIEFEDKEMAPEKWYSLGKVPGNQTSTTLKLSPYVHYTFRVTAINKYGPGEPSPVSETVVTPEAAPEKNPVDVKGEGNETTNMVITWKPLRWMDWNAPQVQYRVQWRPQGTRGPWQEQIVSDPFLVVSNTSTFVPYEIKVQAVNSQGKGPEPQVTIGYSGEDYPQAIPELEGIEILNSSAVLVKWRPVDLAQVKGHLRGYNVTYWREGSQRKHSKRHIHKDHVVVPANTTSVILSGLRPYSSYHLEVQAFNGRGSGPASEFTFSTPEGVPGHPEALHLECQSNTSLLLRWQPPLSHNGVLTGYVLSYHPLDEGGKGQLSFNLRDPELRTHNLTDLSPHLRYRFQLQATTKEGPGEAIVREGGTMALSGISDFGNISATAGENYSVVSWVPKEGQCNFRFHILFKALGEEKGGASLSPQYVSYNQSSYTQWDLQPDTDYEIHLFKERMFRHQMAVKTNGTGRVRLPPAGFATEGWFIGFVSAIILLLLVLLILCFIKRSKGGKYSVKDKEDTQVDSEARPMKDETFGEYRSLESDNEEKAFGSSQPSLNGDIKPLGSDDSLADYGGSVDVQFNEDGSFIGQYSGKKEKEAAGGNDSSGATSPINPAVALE
AP heterodimer (IAP/PLAP) on LoVo cells (human), one chain, as listed by the source, chain 2 of 2: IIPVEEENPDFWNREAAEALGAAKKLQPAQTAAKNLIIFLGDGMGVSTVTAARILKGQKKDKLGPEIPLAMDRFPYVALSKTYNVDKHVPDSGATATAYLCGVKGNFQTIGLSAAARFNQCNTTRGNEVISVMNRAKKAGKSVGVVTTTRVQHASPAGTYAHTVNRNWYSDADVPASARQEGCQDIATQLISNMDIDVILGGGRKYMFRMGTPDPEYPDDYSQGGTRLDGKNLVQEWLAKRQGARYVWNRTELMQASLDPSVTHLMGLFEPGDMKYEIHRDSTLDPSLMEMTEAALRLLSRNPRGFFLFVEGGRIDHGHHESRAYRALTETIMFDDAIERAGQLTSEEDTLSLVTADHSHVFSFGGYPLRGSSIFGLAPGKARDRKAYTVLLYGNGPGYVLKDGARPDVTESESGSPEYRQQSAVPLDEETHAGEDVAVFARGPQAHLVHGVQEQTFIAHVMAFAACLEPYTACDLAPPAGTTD
AP heterodimer (IAP/PLAP) on LoVo cells (human), one chain, as listed by the source, chain 1 of 2: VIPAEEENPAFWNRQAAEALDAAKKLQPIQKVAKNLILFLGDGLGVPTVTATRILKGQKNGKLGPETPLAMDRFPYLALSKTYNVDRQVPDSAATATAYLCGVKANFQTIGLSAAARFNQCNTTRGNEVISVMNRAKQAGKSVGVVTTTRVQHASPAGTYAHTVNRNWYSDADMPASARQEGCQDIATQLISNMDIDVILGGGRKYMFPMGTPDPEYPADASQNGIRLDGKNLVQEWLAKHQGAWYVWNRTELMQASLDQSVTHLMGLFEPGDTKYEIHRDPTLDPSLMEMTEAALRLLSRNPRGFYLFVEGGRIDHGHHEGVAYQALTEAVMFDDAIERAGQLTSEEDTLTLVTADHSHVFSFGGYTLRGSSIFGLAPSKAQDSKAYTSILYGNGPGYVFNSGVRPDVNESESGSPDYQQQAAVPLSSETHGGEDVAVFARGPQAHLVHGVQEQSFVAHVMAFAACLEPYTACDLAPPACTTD

What was measured:
[1] = system: AP heterodimer (IAP/PLAP) on LoVo cells (human); experiment: flow cytometry; settings: LoVo cells, PBS pH 7.4 (about 137 mM NaCl) with 5 mM MgCl2, 4.5 g/L glucose, 1 mg/mL BSA, 0.1 mg/mL herring sperm DNA, 30 min at 4 C, protein on the cell surface, label: FITC or AF647
[2] = system: AP heterodimer (IAP/PLAP) on LoVo cells (human); experiment: pull-down, immunoblot; settings: PBS pH 7.4 (about 137 mM NaCl) with 5 mM MgCl2, 4.5 g/L glucose, 1 mg/mL BSA, 0.1 mg/mL herring sperm DNA, 30 min at 4 C, protein on the cell surface
[3] = biological target: L1CAM on SH-SY5Y cells (human) (UniProt P32004); experiment: flow cytometry; settings: SH-SY5Y cells, L1CAM high, L1CAM knockdown on LoVo did not affect BG2 binding; PBS pH 7.4 (about 137 mM NaCl) with 5 mM MgCl2, 4.5 g/L glucose, 1 mg/mL BSA, 0.1 mg/mL herring sperm DNA; 30 min at 4 C; protein on the cell surface; label: FITC or AF647 (flow cytometry); folded or branched DNA
[4] = system: IAP (intestinal alkaline phosphatase) overexpressed on PC-3 cells + PLAP (placental alkaline phosphatase) overexpressed on PC-3 cells; experiment: flow cytometry; settings: PC-3 cotransfected with IAP + PLAP; PBS pH 7.4 (about 137 mM NaCl) with 5 mM MgCl2, 4.5 g/L glucose, 1 mg/mL BSA, 0.1 mg/mL herring sperm DNA; 30 min at 4 C; protein on the cell surface; label: FITC or AF647 (flow cytometry); folded or branched DNA

TAGGGGTCGGTGTGGGTGGTTATGATT [BG2c2]
binding result ([1]; single-stranded DNA): no binding

TCAAGGAATAGGGGTCAGTGTGGGTGGTTATGATTGGCTTCCTTG [BG2a]
binding result ([1]; folded or branched DNA): no binding

CAAGGAATATTTTTCTTTGTTTTTTTTTATGATTTTCTTCCTTG [BG2t]
binding result ([1]; folded or branched DNA): no binding

CAAGGAATAGGGGTCGGTGTGGGTGGTTATGATTGGCTTCCTTG [BG2-biotin]
binding result ([2]; in situ crosslinked, IAP and PLAP both detected, label: biotin (or biotin-disulfide), folded or branched DNA): binds

TGTCCGTGTTTTTGGTTTGCTGCGGTGGGCTCATGGAC [BC1]
binding result ([2]; neither IAP nor PLAP pulled down, label: biotin, single-stranded DNA): no binding

TCGGTGTGGGTGGTTATGATTGGC [BG2c3]
binding result ([1]; single-stranded DNA): no binding

CAAGGAATAGGGGTCGGTGTGGGTGGTGGCTTCCTTG [BG2m]
binding result ([1]; folded or branched DNA): no binding

CAAGGAATAGGGGTCGGTGTGGGTGGTTATGATTGGCTTCCTTG [BG2]
binding result [3]: no binding
binding result [4]: binds
